Source: publication PMC7060358
These are yes or no findings as the source states them, for the method shown. Binding seen in cells or lysates may run through a third protein. Some binding calls cover weakened binding; strength is not graded here.

Chains of the proteins cited; added tags and fusions are not shown. Residues count along the entry.
UniProt Q9EQY0, residues 21-977: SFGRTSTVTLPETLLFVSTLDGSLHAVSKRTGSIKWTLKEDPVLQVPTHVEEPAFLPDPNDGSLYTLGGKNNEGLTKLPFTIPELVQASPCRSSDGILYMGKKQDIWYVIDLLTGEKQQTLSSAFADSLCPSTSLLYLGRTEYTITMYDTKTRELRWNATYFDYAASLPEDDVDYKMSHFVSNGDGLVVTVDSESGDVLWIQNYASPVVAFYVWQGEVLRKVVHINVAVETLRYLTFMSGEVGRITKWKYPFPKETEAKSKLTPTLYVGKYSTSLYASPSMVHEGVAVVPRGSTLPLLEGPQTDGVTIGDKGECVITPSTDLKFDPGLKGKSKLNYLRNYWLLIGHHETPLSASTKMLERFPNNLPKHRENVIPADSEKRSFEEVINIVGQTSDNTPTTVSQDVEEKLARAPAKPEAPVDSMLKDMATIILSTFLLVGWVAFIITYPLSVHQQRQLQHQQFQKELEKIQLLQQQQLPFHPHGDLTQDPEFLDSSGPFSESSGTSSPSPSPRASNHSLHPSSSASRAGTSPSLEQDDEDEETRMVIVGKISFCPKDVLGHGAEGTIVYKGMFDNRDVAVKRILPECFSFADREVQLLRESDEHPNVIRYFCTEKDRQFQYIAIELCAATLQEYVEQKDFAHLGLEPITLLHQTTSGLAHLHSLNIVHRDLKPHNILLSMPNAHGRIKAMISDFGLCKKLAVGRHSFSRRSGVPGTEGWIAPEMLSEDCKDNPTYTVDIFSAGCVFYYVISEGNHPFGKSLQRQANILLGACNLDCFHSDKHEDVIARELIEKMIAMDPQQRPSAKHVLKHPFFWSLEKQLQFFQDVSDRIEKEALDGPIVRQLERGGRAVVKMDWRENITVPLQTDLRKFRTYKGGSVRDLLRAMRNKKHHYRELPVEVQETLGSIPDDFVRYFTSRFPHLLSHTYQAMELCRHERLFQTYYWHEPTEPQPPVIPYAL
UniProt Q8R4B8: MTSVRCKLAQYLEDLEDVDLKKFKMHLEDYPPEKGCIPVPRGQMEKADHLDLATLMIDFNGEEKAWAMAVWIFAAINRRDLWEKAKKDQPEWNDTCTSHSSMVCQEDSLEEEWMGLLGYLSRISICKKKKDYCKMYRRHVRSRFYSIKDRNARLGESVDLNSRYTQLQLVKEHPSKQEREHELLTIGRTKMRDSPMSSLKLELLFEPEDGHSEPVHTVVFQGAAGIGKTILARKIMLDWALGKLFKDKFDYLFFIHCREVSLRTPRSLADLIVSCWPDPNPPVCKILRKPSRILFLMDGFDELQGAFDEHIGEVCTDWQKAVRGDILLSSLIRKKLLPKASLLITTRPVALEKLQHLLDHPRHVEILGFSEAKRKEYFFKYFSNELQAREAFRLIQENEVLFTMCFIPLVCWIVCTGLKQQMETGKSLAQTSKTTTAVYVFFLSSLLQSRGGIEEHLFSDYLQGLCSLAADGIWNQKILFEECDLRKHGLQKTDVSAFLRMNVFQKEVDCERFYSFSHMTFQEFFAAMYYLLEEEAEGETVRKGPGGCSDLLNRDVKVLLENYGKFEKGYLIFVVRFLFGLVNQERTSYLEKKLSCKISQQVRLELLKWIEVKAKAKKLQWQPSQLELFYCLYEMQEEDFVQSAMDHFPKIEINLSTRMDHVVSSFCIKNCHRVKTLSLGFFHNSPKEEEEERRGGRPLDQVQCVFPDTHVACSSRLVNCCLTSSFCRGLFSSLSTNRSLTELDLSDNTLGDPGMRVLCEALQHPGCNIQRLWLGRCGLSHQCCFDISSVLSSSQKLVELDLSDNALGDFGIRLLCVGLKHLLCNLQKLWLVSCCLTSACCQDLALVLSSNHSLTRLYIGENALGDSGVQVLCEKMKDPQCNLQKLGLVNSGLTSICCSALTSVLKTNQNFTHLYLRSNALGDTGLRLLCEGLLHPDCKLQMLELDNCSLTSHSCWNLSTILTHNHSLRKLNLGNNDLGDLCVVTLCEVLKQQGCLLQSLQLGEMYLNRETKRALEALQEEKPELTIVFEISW

Assays:
[1] = molecular target: T1, thioredoxin interacting protein (mouse (endogenous in lung tissue)) (UniProt Q8BG60); experiment: co-IP; mouse lung tissue lysates (saline, A. fumigatus, A. fumigatus + IC87114, A. fumigatus + 4-PBA); lysis in 50 mM Tris-HCl pH 8.0, 150 mM NaCl, 1 mM DTT, 1 mM EDTA, 1% deoxycholate, 1% Triton X-100, 1% SDS, then diluted; antibody 1:100 overnight, protein A/G-Sepharose 2 hr; immunoblot
T1 sequence: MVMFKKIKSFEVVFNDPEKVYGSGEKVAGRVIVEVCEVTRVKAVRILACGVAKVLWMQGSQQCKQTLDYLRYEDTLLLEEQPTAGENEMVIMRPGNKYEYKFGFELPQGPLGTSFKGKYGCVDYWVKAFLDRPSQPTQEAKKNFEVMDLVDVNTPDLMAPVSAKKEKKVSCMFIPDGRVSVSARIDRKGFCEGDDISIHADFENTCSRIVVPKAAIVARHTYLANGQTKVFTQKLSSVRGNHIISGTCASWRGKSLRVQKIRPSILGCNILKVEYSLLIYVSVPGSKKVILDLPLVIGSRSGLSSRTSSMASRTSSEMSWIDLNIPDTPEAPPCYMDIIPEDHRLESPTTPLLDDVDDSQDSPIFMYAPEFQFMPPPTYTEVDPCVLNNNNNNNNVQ

[2] = molecular target: inositol‐requiring transmembrane kinase/endoribonuclease 1α (mouse (endogenous in lung tissue)) (UniProt Q9EQY0); experiment: condition: only A. fumigatus-challenged mice without IC87114 or 4-PBA; co-IP; mouse lung tissue lysates of A. fumigatus-challenged mice without drug; immunoprecipitated with anti-IRE1α, immunoblotted with anti-PDIA6
[3] = molecular target: inositol‐requiring transmembrane kinase/endoribonuclease 1α (mouse (endogenous in lung tissue)) (UniProt Q9EQY0); experiment: co-IP; mouse lung tissue lysates (saline, A. fumigatus, A. fumigatus + IC87114, A. fumigatus + 4-PBA); lysis in 50 mM Tris-HCl pH 8.0, 150 mM NaCl, 1 mM DTT, 1 mM EDTA, 1% deoxycholate, 1% Triton X-100, 1% SDS, then diluted; antibody 1:100 overnight, protein A/G-Sepharose 2 hr; immunoblot
[4] = molecular target: NOD‐like receptor protein (NLRP3), mouse lung (mouse (endogenous in lung tissue)) (UniProt Q8R4B8); experiment: condition: only A. fumigatus-challenged mice treated with IC87114 or 4-PBA; co-IP; mouse lung tissue lysates of A. fumigatus-challenged mice treated with 1 mg/kg IC87114 or 80 mg/kg 4-PBA; immunoprecipitated with anti-NLRP3, immunoblotted for ASC and caspase-1
[5] = molecular target: NOD‐like receptor protein (NLRP3), mouse lung (mouse (endogenous in lung tissue)) (UniProt Q8R4B8); experiment: co-IP; mouse lung tissue lysates (saline, A. fumigatus, A. fumigatus + IC87114, A. fumigatus + 4-PBA); lysis in 50 mM Tris-HCl pH 8.0, 150 mM NaCl, 1 mM DTT, 1 mM EDTA, 1% deoxycholate, 1% Triton X-100, 1% SDS, then diluted; antibody 1:100 overnight, protein A/G-Sepharose 2 hr; immunoblot

NOD‐like receptor protein (NLRP3), mouse lung (from UniProt Q8R4B8 1-1033)
binding [1]: binds

B1: protein disulfide isomerase family A member (PDIA)6 (protein, UniProt Q922R8 20-440)
chain: LYSSSDDVIELTPSNFNREVIQSDGLWLVEFYAPWCGHCQRLTPEWKKAATALKDVVKVGAVNADKHQSLGGQYGVQGFPTIKIFGANKNKPEDYQGGRTGEAIVDAALSALRQLVKDRLGGRSGGYSSGKQGRGDSSSKKDVVELTDDTFDKNVLDSEDVWMVEFYAPWCGHCKNLEPEWAAAATEVKEQTKGKVKLAAVDATVNQVLASRYGIKGFPTIKIFQKGESPVDYDGGRTRSDIVSRALDLFSDNAPPPELLEIINEDIAKKTCEEHQLCVVAVLPHILDTGAAGRNSYLEVLLKLADKYKKKMWGWLWTEAGAQYELENALGIGGFGYPAMAAINARKMKFALLKGSFSEQGINEFLRELSFGRGSTAPVGGGSFPTITPREPWDGKDGELPVEDDIDLSDVELDDLEKDEL
binding [2]: no binding | binding [3]: binds

B2: caspase‐1, mouse lung (protein, UniProt P29452 1-402)
chain: MADKILRAKRKQFINSVSIGTINGLLDELLEKRVLNQEEMDKIKLANITAMDKARDLCDHVSKKGPQASQIFITYICNEDCYLAGILELQSAPSAETFVATEDSKGGHPSSSETKEEQNKEDGTFPGLTGTLKFCPLEKAQKLWKENPSEIYPIMNTTTRTRLALIICNTEFQHLSPRVGAQVDLREMKLLLEDLGYTVKVKENLTALEMVKEVKEFAACPEHKTSDSTFLVFMSHGIQEGICGTTYSNEVSDILKVDTIFQMMNTLKCPSLKDKPKVIIIQACRGEKQGVVLLKDSVRDSEEDFLTDAIFEDDGIKKAHIEKDFIAFCSSTPDNVSWRHPVRGSLFIESLIKHMKEYAWSCDLEDIFRKVRFSFEQPEFRLQMPTADRVTLTKRFYLFPGH
binding [4]: no binding | binding [5]: binds
